Experimental data: publication PMC5636754, “Structural and biochemical characterization of DAXX-ATRX interaction” (Protein & Cell, 2017)
Results are given in words; binding and its absence hold for the method and conditions named. Some binding calls cover weakened binding; strength is not graded here.

The chains behind the UniProt entries cited, without tags or fusion partners. Residues count along the entry.
UniProt Q9UER7, residues 55-144: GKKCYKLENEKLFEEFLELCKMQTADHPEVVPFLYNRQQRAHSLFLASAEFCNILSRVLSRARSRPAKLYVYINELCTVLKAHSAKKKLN
UniProt Q00987, residues 293-317: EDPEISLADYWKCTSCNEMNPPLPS

Target: DAXX helical bundle (DHB) domain of death domain-associated protein (DAXX), aa 55-144 (UniProt Q9UER7)
Test: native gel or EMSA; preformed DHB_(DAXX)-ATRX_(1,244–1,285) complex incubated with competitor peptides of different concentration, native-PAGE, Coomassie blue staining; both purified

| Molecule | binding |
| --- | --- |
| Mdm2_(293–317) competitor peptide (from UniProt Q00987 293-317) | binds |
| GYCSQEDSDSELEQYFTARTSLARR (peptide, UniProt Q9NS23-4 20-44) [Rassf1c_(20–44) competitor peptide] | binds |
